# Reference: PubChem BioAssay AID504467 (National Center for Advancing Translational Sciences (NCATS), 2011)
# Hit rate of the full screen: of about 330,000 compounds, about 7,700 (2.3%) were called active. This list was built around the results that the source calls inconclusive (neither active nor inactive); the mix of calls is not that of the screen. Calls follow the shape of the dose curve; as a rule, active = well fitted inhibition curve with a large enough effect; inconclusive = small, poorly fitted or top-dose-only effect, or effect the other way; inactive = flat fitted curve, though single readings scatter. Potencies of inconclusive entries are doubtful fits and often do not repeat.
# Assay: qHTS screen for small molecules that inhibit ELG1-dependent DNA repair in human embryonic kidney (HEK293T) cells expressing luciferase-tagged ELG1; also: nearly all actives have a fitted effect of over 55% in size
# Conditions: HEK293T ELG1-luciferase reporter, luminescence, 16 h, DNA damage induced by 5-fluorouridine; activity change, negative = inhibition: at 46.1 µM (top of the series)
# Summary of the method: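 DMSO vehicle served as the neutral condition. Each well held 2,000 cells given 5-fluorouridine plus compound; after 16 hr at 37 °C/5% CO2, ONE-Glo was added and luciferase measured 30 min later.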
# % is scaled to controls: 0 for no effect and ±100 for the full control effect; potency is read from the fitted curve at half-maximal effect.
SMILES,Potency,"activity change, negative = inhibition"
Cc1ccc(NC(=O)CSc2nccn2Cc2ccco2)c(C)c1,"inconclusive: 7.3 µM [activator, partial curve]",
COc1ccc(-c2sc(C(=O)c3ccc(Cl)cc3Cl)cc2CC(=O)O)cc1,,inactive: -28.8%
CC1CCC2(CC1)NC(=O)N(NC(=O)CCc1c[nH]c3ccccc13)C2=O (centres undefined),,inactive: 4.14%
O=C(C#Cc1ccccc1)Nc1ccc(F)cc1,"inconclusive: 18.3 µM [activator, partial curve]",
C=CC[C@@H](Cc1ccc(F)cc1)C(=O)OC[C@@H]1CCCN1C(=O)[C@@H](CC=C)CC(=O)N[C@H](CO)Cc1ccccc1,active: 20.6 µM,
Cc1ccc(C(=O)COC(=O)COc2ccccc2O)cc1C,"inconclusive: 0.58 µM [activator, single point]",
CC1CC(C)(C)NC(=S)N1CCC(=O)NCc1ccc(F)cc1 (centres undefined),,inactive: 15.9%
O=C(CN1CCc2ccccc21)NCc1ccccc1Cl,"inconclusive: 32.6 µM [activator, single point]",
NS(=O)(=O)c1ccc(CNc2nc(-c3cccnc3)nc3ccccc23)cc1,"inconclusive: 18.3 µM [inhibitor, single point]",
Cc1ccc(-c2cc(C(=O)OCC(=O)N(C)C3CCS(=O)(=O)C3)c3ccccc3n2)o1 (centres undefined),"inconclusive: 13 µM [activator, partial curve]",
Cc1ccc(-c2cc(C(=O)NC3CCCCC3)no2)cc1,"inconclusive: 3.26 µM [activator, partial curve]",
CC(=O)Nc1ccc(NC(=O)c2cccc(S(=O)(=O)N(C)C3CCCCC3)c2)cc1,"inconclusive: 29.1 µM [inhibitor, single point]",
C[C@H](CO)N1C[C@H](C)[C@@H](CN(C)C(=O)NC2CCCCC2)Oc2ccc(NS(C)(=O)=O)cc2C1=O,"inconclusive: 16.4 µM [activator, single point]",
CC(=O)Nc1ccc(-c2nc3ccccc3c(=O)o2)cc1,"inconclusive: 29.1 µM [activator, single point]",
CCOc1ccc2oc(C(=O)N(C)CC(=O)Nc3ccc(OCC)c(OCC)c3)c(C)c2c1,"inconclusive: 2.06 µM [inhibitor, partial curve]",
COc1ccc(OC)c2[nH]c(=O)c(CCNS(=O)(=O)c3ccc(C)cc3)cc12,"inconclusive: 3.66 µM [activator, partial curve, poor fit]",
Cc1ccc(/C(O)=C2\C(=O)C(=O)N(Cc3cccnc3)C2c2ccccc2[N+](=O)[O-])cc1 (centres undefined),"inconclusive: 18.4 µM [activator, partial curve]",
Cn1c(CNc2cccc(C(F)(F)F)c2)n[nH]c1=S,,inactive: 10.3%
O=[N+]([O-])c1c(NCCCO)cc(Sc2nc3ccccc3s2)c2nonc12,,inactive: -1.15%
CCCCCCOC(=O)c1ccc(OC(=O)c2cccnc2)cc1,"inconclusive: 23.1 µM [activator, partial curve]",
N#CC1C=Cc2ccccc2N1C(=O)c1ccccc1 (centres undefined),,inactive: 4.12%
S=C(Nc1ccc2nc(-c3ccccn3)c(-c3ccccn3)nc2c1)N1CCCCCC1,"inconclusive: 25.9 µM [inhibitor, single point]",

SMILES,Potency,"activity change, negative = inhibition"
N#CCNC(=O)C1CC(=O)N(CCc2ccc(F)cc2)C1 (centres undefined),,inactive: 0.903%
O=C(c1cc(C(=O)c2ccco2)cc(C(=O)c2ccco2)c1)c1ccco1,,inactive: 15%
O=[N+]([O-])c1ccc(/C=N/Nc2ncc(-c3ccccc3)cn2)cc1,,inactive: -2.4%
Cc1cccc(NC(=O)Cn2c(O)c(N=NC(N)=S)c3ccccc32)c1,"inconclusive: 4.11 µM [inhibitor, partial curve, poor fit]",
CCC(=O)N1CCN(c2ccc(NC(=S)NC(=O)COc3ccccc3)cc2)CC1,,inactive: -8.42%
O=C(N/N=C\c1ccc(OC(=O)c2ccco2)cc1)c1ccc(Cl)cc1,"inconclusive: 20.6 µM [activator, single point]",
CCCC1=C(C(=O)OCC)C(c2ccc(F)cc2)n2ncnc2N1 (centres undefined),"inconclusive: 23.1 µM [inhibitor, partial curve, poor fit]",
CC(=O)c1ccc(NC(=O)CN2CCCC2)cc1,"inconclusive: 23.1 µM [activator, partial curve]",
CN1CCN(/N=C/c2ccc(-c3ccccc3)cc2)CC1,"inconclusive: 18.3 µM [activator, partial curve]",
Oc1ccccc1-c1cc(-c2ccc3c(c2)OCCO3)n[nH]1,"inconclusive: 0.411 µM [activator, full curve]",
O=C(Nc1nc2ccccc2[nH]1)C1CCCC1,"inconclusive: 4.61 µM [activator, partial curve]",
COc1ccc2oc(=O)c(C(=O)NCc3ccco3)cc2c1,"inconclusive: 23.1 µM [activator, partial curve]",
NS(=O)(=O)c1ccc(NS(=O)(=O)c2ccc(NC(=O)C3CC3)cc2)cc1,"inconclusive: 32.6 µM [activator, partial curve, poor fit]",
Cc1cccc(NC(=O)NNS(=O)(=O)c2ccc(F)cc2)c1,,inactive: -5.34%
COC(=O)/C(=C\c1ccc2c(c1)c1ccccc1n2C)NC(=O)c1ccccc1,active: 20.6 µM,
Cc1ccc(NC(=O)c2ccc(OC(=O)c3ccco3)cc2)cc1,"inconclusive: 10.3 µM [activator, partial curve]",
Cc1csc(NC(=O)C2CCCN(S(=O)(=O)c3ccc(Br)s3)C2)n1 (centres undefined),"inconclusive: 25.9 µM [inhibitor, single point]",
NNc1nnc2c3cc(F)ccc3n(Cc3ccccc3)c2n1,active: 9.2 µM,
O=C(NCCC1CC1(Cl)Cl)Nc1ccccc1 (centres undefined),"inconclusive: 29.1 µM [activator, single point]",
O=C(Nc1cnc2ccccc2c1)C1COc2ccccc2O1 (centres undefined),"inconclusive: 6.51 µM [activator, partial curve]",
COc1ccc(-c2ccc3oc(-c4ccsc4)cc(=O)c3c2)cn1,"inconclusive: 3.66 µM [activator, single point]",
COc1ccc(NC(=O)NC2CCCCC2C)cc1 (centres undefined),"inconclusive: 20.6 µM [activator, single point]",

# An excerpt of these results, bar-delimited.
SMILES | Potency | activity change, negative = inhibition
O=C(c1cc(C(=O)c2ccco2)cc(C(=O)c2ccco2)c1)c1ccco1 |  | inactive: 15%
O=[N+]([O-])c1ccc(/C=N/Nc2ncc(-c3ccccc3)cn2)cc1 |  | inactive: -2.4%
